This is one part of the list.
compound: C=CC(=O)N1CCC[C@@H](n2nc(-c3ccc(Oc4ccccc4)cc3)c3c(N)ncnc32)C1 [ibrutinib]; test: log2 fold change, soluble protein after heating vs DMSO (PISA); higher = thermal stabilisation; K562 cells, 10 uM, 30 min; active = over 0.2 and 3.5 SD of the protein, either way, in both replicates (recomputed)
How it was run: (§1)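 K562 cells at 2×10^6 cells/mL were exposed to 10 μM compound for 30 min, then aliquots were heated for 3 min across 48°C-58°C, pooled, and extracted in PBS containing 0.5% NP-40 at 4°C. The supernatant after 21,000xg for 90 min was taken as soluble protein and measured by TMTpro 16plex LC-MS/MS with channel sums equalised. Thermal stability is reported relative to control samples, with values from duplicates. Fold changes are given on a log2 scale.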

Chains of the proteins cited; added tags and fusions are not shown. Lines headed by an entry give the natural chain unless they say otherwise; changes in a name come on top.
UniProt Q8TB40: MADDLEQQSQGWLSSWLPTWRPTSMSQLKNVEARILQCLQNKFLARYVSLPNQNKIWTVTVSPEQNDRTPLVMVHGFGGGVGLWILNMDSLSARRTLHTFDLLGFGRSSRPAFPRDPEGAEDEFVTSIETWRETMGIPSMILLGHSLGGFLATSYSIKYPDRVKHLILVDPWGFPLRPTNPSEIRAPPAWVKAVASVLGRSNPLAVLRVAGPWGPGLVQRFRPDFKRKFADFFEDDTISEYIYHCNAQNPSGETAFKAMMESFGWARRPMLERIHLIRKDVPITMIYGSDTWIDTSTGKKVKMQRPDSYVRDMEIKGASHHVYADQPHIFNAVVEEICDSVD
UniProt Q8WTS1: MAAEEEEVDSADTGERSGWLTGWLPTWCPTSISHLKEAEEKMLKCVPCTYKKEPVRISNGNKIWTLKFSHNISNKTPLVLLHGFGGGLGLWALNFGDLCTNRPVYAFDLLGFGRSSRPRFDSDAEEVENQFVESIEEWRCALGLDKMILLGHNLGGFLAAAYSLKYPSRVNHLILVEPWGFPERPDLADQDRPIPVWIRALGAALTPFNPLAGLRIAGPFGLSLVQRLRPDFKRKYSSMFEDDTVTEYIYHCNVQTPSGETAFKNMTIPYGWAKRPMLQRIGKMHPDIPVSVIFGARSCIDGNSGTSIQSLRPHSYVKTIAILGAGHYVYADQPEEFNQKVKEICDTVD
UniProt P42684, whole entry, looked up: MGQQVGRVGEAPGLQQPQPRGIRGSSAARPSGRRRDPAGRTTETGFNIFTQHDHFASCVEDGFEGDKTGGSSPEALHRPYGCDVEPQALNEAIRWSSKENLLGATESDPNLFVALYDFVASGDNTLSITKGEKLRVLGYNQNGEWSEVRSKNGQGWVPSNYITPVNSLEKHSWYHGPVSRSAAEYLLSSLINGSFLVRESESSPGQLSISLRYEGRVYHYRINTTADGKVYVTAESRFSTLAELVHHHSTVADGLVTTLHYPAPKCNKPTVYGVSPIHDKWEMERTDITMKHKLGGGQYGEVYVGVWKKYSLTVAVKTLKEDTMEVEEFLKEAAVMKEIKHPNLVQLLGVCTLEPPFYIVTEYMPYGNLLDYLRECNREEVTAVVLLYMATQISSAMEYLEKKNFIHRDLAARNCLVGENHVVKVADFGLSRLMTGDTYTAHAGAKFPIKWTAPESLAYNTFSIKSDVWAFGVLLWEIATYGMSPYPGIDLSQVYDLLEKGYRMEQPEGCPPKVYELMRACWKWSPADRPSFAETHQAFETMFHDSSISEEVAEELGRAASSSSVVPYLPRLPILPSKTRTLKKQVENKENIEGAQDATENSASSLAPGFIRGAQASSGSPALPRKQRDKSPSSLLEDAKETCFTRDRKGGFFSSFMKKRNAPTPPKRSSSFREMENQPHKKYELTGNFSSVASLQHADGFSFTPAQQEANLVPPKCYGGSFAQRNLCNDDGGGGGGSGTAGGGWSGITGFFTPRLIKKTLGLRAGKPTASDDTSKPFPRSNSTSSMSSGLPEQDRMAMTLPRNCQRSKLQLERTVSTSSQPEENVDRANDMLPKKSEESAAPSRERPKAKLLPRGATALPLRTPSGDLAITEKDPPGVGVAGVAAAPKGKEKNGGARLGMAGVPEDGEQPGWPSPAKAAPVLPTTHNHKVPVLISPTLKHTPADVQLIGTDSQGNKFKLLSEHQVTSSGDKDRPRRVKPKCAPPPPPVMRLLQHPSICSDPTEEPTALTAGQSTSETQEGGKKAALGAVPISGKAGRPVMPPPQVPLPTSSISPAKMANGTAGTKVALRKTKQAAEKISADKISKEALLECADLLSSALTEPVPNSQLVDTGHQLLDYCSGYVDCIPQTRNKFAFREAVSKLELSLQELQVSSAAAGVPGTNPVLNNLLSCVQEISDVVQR
UniProt Q9UKU0: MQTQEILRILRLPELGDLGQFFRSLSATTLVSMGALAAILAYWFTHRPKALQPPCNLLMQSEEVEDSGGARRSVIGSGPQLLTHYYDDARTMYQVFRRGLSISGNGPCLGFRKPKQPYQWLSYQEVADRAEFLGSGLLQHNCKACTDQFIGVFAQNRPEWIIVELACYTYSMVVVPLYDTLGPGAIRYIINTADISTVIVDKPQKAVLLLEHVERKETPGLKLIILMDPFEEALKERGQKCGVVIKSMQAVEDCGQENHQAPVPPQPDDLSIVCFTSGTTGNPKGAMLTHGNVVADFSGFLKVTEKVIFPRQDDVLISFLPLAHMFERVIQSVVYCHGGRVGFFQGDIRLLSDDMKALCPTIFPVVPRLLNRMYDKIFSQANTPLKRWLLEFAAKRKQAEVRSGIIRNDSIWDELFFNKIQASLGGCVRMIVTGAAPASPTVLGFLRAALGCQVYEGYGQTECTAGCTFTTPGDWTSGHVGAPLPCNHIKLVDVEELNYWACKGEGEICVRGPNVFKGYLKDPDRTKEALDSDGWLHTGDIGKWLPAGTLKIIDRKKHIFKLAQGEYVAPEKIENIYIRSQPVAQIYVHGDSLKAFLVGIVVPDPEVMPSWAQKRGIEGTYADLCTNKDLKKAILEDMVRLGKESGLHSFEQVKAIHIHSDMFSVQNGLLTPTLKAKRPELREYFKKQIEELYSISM
UniProt Q9NX38: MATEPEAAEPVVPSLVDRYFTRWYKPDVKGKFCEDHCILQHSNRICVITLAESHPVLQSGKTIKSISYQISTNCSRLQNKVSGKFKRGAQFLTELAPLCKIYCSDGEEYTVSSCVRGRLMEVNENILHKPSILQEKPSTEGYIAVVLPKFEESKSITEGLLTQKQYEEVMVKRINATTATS
UniProt A8K2U0: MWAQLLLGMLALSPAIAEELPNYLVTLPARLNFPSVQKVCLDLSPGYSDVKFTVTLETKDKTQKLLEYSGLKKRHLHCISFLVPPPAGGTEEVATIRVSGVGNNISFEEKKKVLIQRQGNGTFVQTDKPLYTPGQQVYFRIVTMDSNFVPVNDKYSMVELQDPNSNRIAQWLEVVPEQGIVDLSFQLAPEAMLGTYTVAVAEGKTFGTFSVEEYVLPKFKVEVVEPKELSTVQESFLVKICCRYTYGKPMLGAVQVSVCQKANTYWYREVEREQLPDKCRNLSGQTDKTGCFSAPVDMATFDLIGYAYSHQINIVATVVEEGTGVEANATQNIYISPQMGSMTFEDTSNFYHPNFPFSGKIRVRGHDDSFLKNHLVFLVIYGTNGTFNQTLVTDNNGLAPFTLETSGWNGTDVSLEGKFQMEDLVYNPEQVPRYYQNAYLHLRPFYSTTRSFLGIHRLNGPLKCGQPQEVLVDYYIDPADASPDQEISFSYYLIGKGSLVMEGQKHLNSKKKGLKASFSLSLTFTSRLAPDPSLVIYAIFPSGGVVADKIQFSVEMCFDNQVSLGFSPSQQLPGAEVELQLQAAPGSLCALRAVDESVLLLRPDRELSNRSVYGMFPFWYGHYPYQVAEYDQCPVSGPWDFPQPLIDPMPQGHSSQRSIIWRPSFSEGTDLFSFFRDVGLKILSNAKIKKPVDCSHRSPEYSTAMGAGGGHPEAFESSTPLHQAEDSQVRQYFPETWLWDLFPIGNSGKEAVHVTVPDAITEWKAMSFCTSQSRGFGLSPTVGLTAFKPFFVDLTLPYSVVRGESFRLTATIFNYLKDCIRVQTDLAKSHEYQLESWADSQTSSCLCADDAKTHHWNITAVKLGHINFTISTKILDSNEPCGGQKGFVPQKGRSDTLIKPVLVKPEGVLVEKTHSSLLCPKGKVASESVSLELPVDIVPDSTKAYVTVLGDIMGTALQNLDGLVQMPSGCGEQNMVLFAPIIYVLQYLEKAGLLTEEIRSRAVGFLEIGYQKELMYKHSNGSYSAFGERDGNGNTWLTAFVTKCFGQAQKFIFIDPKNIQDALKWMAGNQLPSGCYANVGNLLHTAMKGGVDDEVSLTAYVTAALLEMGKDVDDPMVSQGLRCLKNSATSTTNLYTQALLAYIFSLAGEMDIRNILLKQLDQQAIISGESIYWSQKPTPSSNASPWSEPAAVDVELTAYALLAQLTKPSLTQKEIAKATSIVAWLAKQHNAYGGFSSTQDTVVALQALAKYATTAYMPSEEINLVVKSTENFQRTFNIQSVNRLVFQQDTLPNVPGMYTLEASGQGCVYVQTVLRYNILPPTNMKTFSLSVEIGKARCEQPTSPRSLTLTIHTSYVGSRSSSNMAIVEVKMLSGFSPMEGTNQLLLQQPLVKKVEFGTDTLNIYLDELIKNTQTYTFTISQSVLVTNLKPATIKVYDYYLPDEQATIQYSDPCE
UniProt P21439, whole entry, looked up: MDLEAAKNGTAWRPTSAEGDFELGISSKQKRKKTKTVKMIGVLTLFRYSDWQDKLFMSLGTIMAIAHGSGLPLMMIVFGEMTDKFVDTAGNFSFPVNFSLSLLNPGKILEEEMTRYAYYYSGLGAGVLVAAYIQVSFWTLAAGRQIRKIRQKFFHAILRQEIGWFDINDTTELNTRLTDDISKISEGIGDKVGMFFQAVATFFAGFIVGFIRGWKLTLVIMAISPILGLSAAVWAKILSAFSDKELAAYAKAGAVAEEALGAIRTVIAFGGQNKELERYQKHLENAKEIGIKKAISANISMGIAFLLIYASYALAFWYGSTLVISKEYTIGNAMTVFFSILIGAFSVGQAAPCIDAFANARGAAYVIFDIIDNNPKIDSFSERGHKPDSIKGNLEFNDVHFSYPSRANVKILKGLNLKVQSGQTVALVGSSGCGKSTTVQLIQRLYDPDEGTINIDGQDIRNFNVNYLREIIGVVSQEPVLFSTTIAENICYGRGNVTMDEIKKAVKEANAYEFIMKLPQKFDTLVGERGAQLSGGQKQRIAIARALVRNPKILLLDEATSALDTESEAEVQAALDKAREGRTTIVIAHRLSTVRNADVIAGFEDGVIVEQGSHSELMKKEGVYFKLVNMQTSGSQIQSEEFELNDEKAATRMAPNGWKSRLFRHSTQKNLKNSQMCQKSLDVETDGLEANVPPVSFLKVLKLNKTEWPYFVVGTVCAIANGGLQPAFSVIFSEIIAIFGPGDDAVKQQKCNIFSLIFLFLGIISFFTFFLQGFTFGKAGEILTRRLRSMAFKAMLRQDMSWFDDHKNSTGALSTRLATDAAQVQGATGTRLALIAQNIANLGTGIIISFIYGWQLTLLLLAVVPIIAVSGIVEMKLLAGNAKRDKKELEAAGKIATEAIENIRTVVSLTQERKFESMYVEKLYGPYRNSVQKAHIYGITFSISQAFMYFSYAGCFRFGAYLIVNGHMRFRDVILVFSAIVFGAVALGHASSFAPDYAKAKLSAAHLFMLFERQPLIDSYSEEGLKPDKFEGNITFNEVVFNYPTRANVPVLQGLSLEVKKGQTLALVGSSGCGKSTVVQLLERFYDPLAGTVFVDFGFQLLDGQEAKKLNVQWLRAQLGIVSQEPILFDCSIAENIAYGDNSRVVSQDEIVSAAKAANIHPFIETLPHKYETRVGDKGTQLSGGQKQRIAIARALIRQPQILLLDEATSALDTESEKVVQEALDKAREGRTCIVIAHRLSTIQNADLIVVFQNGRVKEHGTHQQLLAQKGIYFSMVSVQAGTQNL
UniProt Q6JQN1: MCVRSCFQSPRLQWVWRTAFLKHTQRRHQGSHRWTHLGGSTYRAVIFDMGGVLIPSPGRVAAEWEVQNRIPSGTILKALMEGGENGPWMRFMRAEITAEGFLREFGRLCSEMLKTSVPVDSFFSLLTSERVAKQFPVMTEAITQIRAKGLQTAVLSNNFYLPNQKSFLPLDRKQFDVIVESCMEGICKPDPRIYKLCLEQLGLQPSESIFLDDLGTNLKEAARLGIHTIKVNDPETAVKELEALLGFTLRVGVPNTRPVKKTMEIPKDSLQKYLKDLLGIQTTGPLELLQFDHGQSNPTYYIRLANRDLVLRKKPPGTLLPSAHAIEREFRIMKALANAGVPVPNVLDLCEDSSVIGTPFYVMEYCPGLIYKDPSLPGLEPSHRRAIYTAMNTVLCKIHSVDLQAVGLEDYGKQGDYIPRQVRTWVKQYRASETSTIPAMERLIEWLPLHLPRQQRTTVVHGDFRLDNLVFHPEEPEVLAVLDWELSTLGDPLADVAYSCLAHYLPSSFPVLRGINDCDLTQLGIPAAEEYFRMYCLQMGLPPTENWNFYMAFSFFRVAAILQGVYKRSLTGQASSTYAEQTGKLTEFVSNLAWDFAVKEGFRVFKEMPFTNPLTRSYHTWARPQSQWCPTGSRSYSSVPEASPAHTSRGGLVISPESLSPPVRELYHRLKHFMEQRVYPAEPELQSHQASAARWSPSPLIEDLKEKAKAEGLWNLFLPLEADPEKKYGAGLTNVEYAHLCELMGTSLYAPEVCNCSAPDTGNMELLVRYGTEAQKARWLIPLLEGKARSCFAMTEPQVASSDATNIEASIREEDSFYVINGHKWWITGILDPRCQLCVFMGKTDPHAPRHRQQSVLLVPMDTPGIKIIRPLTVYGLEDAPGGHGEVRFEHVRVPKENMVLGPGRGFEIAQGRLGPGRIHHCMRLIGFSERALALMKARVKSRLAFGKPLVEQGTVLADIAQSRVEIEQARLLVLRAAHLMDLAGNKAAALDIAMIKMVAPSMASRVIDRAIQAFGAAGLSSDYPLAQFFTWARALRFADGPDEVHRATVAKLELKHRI

Target	log2 fold change
ACTB, A0A2R8YEA7	inactive: 0.054
ADAD1 (UniProt Q96M93)	inactive: -0.136
ACAA2 (UniProt K7ER88)	inactive: -0.115
ABHD4 (UniProt Q8TB40)	inactive: 0.524
AARSD1 (UniProt Q9BTE6)	inactive: 0.135
ACCS (UniProt Q96QU6)	inactive: 0.048
ABHD5 (UniProt Q8WTS1)	inactive: 0.098
ACAT1, A0A5F9ZHJ0	inactive: -0.014
ABCB5 (UniProt Q2M3G0)	inactive: 0.082
ABL2 (UniProt P42684)	inactive: 0.199
ABRACL (UniProt Q9P1F3)	inactive: 0.367
ACSL6 isoform 1 (UniProt Q9UKU0)	inactive: 0.043
ABITRAM (UniProt Q9NX38)	inactive: 0.005
ABCF1 (UniProt Q5STZ8)	inactive: -0.145
ABCA2 isoform 3 (UniProt Q9BZC7)	inactive: -0.057
AASDH (UniProt Q4L235)	inactive: -0.308
ABCA8 isoform 3 (UniProt O94911)	inactive: 0.359

compound: CC(=O)c1cnc2ccc(-c3cc(Cl)c(O)c(Cl)c3)nc2c1N[C@H]1CC[C@H](CN(C)C)CC1; test: as above
How it was run: as §1

Target	log2 fold change
ACTB, A0A2R8YEA7	inactive: -0.024
ACAA2 (UniProt K7ER88)	inactive: -0.358
A2ML1 (UniProt A8K2U0)	inactive: -0.238
ABCB1 (UniProt P08183)	inactive: -0.021
ACTG1 (UniProt K7EM38)	inactive: -0.102
ADAMTS13 (UniProt Q76LX8)	inactive: 0.139
AARSD1 (UniProt Q9BTE6)	inactive: 0.107
ACOT7 (UniProt K7EKP8)	inactive: -0.148
ABCB4 (UniProt P21439)	inactive: -0.324
ABHD5 (UniProt Q8WTS1)	inactive: -0.12
ACAD10 isoform 5 (UniProt Q6JQN1)	inactive: -0.078
ACAT1, A0A5F9ZHJ0	inactive: 0.261
ABITRAM (UniProt Q9NX38)	inactive: -0.073
ABCF1 (UniProt Q5STZ8)	inactive: 0.046

compound: CC(C)(C)Cn1c(N)nc2ccc(-c3[nH]c(C(C)(C)C)nc3-c3ccc(F)cc3)nc21 [ralimetinib]; test: as above
How it was run: as §1

Target	log2 fold change
ACTB, A0A2R8YEA7	inactive: -0.154
ACTR3B (UniProt Q9P1U1)	inactive: -0.071
ADAD1 (UniProt Q96M93)	inactive: -0.332
A2ML1 (UniProt A8K2U0)	inactive: -0.068
ACTG1 (UniProt K7EM38)	inactive: -0.105
ACCS (UniProt Q96QU6)	inactive: -0.076
ABCB4 (UniProt P21439)	inactive: 0.025
ADCK1 (UniProt Q86TW2)	inactive: 0.001
ABCB11 (UniProt O95342)	inactive: -0.048
ABHD5 (UniProt Q8WTS1)	inactive: 0.095
ABHD6 (UniProt Q9BV23)	inactive: 0.23
ACAD10 isoform 5 (UniProt Q6JQN1)	inactive: 0.06
ACTG1 (UniProt I3L4N8)	inactive: -0.161
ABL2 (UniProt P42684)	inactive: 0.008
ABRACL (UniProt Q9P1F3)	inactive: -0.017
AACS (UniProt Q86V21)	inactive: 0.136
ACSL6 isoform 1 (UniProt Q9UKU0)	inactive: -0.001
ABITRAM (UniProt Q9NX38)	inactive: -0.088
ACSF2 isoform 2 (UniProt Q96CM8)	inactive: -0.314
ABCA2 isoform 3 (UniProt Q9BZC7)	inactive: -0.099
AASDH (UniProt Q4L235)	inactive: -0.011

compound: CC(C)(O)CC(=O)NCCn1ccc2ncnc(Nc3ccc(Oc4cccc(C(F)(F)F)c4)c(Cl)c3)c21; test: as above
How it was run: as §1

Target	log2 fold change
ACAA2 (UniProt K7ER88)	inactive: -0.049
ABHD4 (UniProt Q8TB40)	inactive: 0.265
ACTG1 (UniProt K7EM38)	inactive: 0.024
ADAMTS13 (UniProt Q76LX8)	inactive: 0.12
ADAM8 (UniProt P78325)	inactive: -0.046
ACCS (UniProt Q96QU6)	inactive: -0.034
ADCK1 (UniProt Q86TW2)	inactive: -0.097
ACAT1, A0A5F9ZHJ0	inactive: 0.164
ABL2 (UniProt P42684)	inactive: -0.299
ABAT (UniProt P80404)	inactive: 0.185
AACS (UniProt Q86V21)	inactive: -0.176
ACSL6 isoform 1 (UniProt Q9UKU0)	inactive: 0.222
ABITRAM (UniProt Q9NX38)	inactive: -0.008
AASDH (UniProt Q4L235)	inactive: -0.15

compound: CC(C)C1=C2N=C(C=C(N2N=C1)NCC3=CC=CC=C3)NCCCCCCN; test: as above
How it was run: as §1

Target	log2 fold change
ACTB, A0A2R8YEA7	inactive: 0.162
ACTR3B (UniProt Q9P1U1)	inactive: 0.181
ADAD1 (UniProt Q96M93)	inactive: -0.197
A2ML1 (UniProt A8K2U0)	inactive: 0.308
ABHD4 (UniProt Q8TB40)	inactive: -0.225
ADAM8 (UniProt P78325)	inactive: -0.103
ACTC1 (UniProt P68032)	inactive: -0.034
AARSD1 (UniProt Q9BTE6)	inactive: -0.13
ACCS (UniProt Q96QU6)	inactive: 0.089
ABCB4 (UniProt P21439)	inactive: -0.036
ADCK1 (UniProt Q86TW2)	inactive: 0.043
ABHD5 (UniProt Q8WTS1)	inactive: -0.084
ACAD10 isoform 5 (UniProt Q6JQN1)	inactive: -0.092
ABHD3 (UniProt Q8WU67)	inactive: -0.078
ACTB (UniProt E7EVS6)	inactive: -0.102
ABCB5 (UniProt Q2M3G0)	inactive: 0.026
ACTG1 (UniProt I3L4N8)	inactive: 0.11
ACYP2 (UniProt P14621)	inactive: -0.082
ACSL6 isoform 1 (UniProt Q9UKU0)	inactive: -0.21
ACSF2 isoform 2 (UniProt Q96CM8)	inactive: 0.024
AASDH (UniProt Q4L235)	inactive: -0.107
ABCA8 isoform 3 (UniProt O94911)	inactive: 0.032
